Primary screen of a compound library

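Growth of Mycobacterium tuberculosis over 4 days (cholesterol / DPPC medium with tyloxapol); the read-out is not stated. Concentration: 50 µM. Direction is inferred from retests: higher values go with more growth inhibition. About 69,000 compounds were tested under these conditions; 0.54% (about 370) showed 50% or more at least once.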

The filed quantity is “Percent Effect” (%).
How 0% and 100% were set is not recorded. Most values in the screen are low, and negative values occur.
The compounds are a random part of those screened.
Two or more numbers in one place are separate tests of the same structure; such repeats can differ widely.

SMILES	effect
O=C(NCC(O)c1ccccc1)Nc1cccs1 (stereo not shown)	-54.25
CN(C)C(=O)C1CCCN1C(=O)c1ccc(Cn2ccnc2)o1 (stereo not shown)	11.62
[H][C@@]12C[C@@H](O)CN1C[C@@H](Cc1ccccc1)N(Cc1cnn(C=C)c1C)C2	-3.173
CCc1csc(C2CCCN(C(=O)c3cc(Cl)c[nH]3)C2)n1 (stereo not shown)	14.99
Cc1nc(C2CCCN(C(=O)c3ccc(OCC4CC4)cc3)C2)no1 (stereo not shown)	-6.674
COc1ccc(C(C)N2CCC(OC)CC2)cc1Cl (stereo not shown)	0.9562
c1ccc(CCn2cc(-c3nc(CN4CCOCC4)no3)nn2)cc1	-16.77
CN(C)CC(=O)N1CCCC2(CCN(c3ccccc3)C2=O)C1.O=C(O)C(F)(F)F (stereo not shown)	-20.19
CCn1nc(C)c(CNC(=O)c2nnc3ccc(Cl)cc3n2)c1C	-7.239
O=C(NCCNS(=O)(=O)c1cccc(Cl)c1)C1CCCO1 (stereo not shown)	-39.17
Cc1csc(C(C)(C)NCc2ncc(-c3ccc(F)cc3)o2)n1	-8.226 & 0.7225
CCc1cccc(C)c1NC(=O)c1ccccc1N(C)S(C)(=O)=O	-18.15 & -29.73
O=C1CCC(c2ccccc2)(c2ccccc2)CN1CCO	-19.86
COc1ccc(C(=O)NS(=O)(=O)c2cncc(Br)c2)cc1OC	2.707
COc1ccc(-n2nc(C)c(C(C)=O)c2C)cc1CO	-8.624 & -6.861
CC(NC(=O)CN1C=Nc2ccccc2S1(=O)=O)C1CC1 (stereo not shown)	-40.2
Cc1noc(C2(C)CCCN(C(=O)c3cccnc3)C2)n1 (stereo not shown)	-10.94
Cc1ccc2c(n1)N(C)CCN(C(=O)NC(C)C)C2.O=C(O)C(F)(F)F	-10.47
CC(=O)Nc1ccc(-c2ccccc2CCN)cc1	4.716
Cc1ccnn1CCCNC(=O)C1CCN(S(C)(=O)=O)CC1	7.204
O=C(Nc1ccc(Br)cc1F)c1ccc(N2CCCCC2)nn1	-15.21
CC1CCCN(CCNC(=O)c2ccn(-c3ccc(F)cc3)n2)C1 (stereo not shown)	10.4
COc1cccc(C(=O)NS(=O)(=O)c2cncc(Br)c2)c1OC	6.927
Cc1cc2occ(CC(=O)N3CCC4(CCCN(C)C4=O)C3)c2cc1Cl (stereo not shown)	7.33
CC(=O)NC(Cc1c[nH]c2cc(F)ccc12)C(=O)Nc1cnn(C)c1 (stereo not shown)	6.204
NC(=O)c1ccc2c(c1)nc1n2CCN(Cc2cccnc2)C1	-0.778
CCn1cc(S(=O)(=O)N2CCCCCC2c2cc(C)on2)cn1 (stereo not shown)	-4.582
CCCn1[nH]c(CNc2ccccc2)nc1=O	8.084
Cc1ccc(-c2nc(CNC3CCc4ncnn4C3)no2)cc1 (stereo not shown)	-5.344
CN(C)c1ccc(NC(=O)C2CN(Cc3ccccc3)CCO2)cn1 (stereo not shown)	-89.08 & -34
Cn1ncc2c(NCCOCc3ccccc3)nc(C3CCCC3)nc21	8.841 & 3.077
CN1CCC(Cc2cc(N(C)C)ncn2)C1 (stereo not shown)	-21.72
Cc1cc(C)c2c(N3CCC(C(=O)N4CCOCC4)CC3)ncnc2n1	-11.47
Cc1cnn(CCNCC(=O)NC2(C#N)CCCC2)c1	2.427
Cc1nc2c(c(NC3CC3)n1)CCN(C(=O)C1(C#N)CC1)CC2	-5.508
c1ccc(-n2ccc(CNC3CCc4ncnn4C3)n2)cc1 (stereo not shown)	-4.891
[H][C@]12CN(c3ncc(CC)cn3)C[C@@]1([H])S(=O)(=O)CC[C@@H]2C(=O)N(C)C	-31.74
CCc1nc(CN2CCCN(c3nc4ccccc4o3)CC2)no1	-38.23
CCCc1nc2c(c(C)c(C)n2Cc2cccnc2)c(N)c1CC	8.258
C[C@@H]1CN(CC(C)(C)N2CCOCC2)C[C@@]1(O)C1CC1	-10.7
CCC(NC(=O)C1CCN(S(C)(=O)=O)CC1)c1ccc(OC)cc1 (stereo not shown)	-1.685
O=C(O)C(F)(F)F.O=C(O)C(F)(F)F.c1ccc(O[C@H]2CO[C@@]3(CCCN(Cc4nccs4)C3)C2)nc1	-62.99 & 0.1051
Cc1ccc(CN2CCC3(CCC(=O)N3CC(=O)N(C)C)CC2)s1.O=C(O)C(F)(F)F	-1.208 & -5.766
CCc1csc(C2CCCN(C(=O)c3cnc[nH]3)C2)n1 (stereo not shown)	-14.21
CCc1noc(C)c1C(=O)N1CCCC1Cn1cccn1 (stereo not shown)	-18.74
CCc1sc(C(=O)Nc2cnn(CCN(C)C)c2)cc1C	6.578
CCOC(C)C(=O)Nc1ccc(Sc2nncn2C)c(Cl)c1 (stereo not shown)	-24.17
Cc1noc(Cl)c1CCC(=O)N1CCCCC1Cn1cccn1 (stereo not shown)	-4.787
[H][C@@]12COC[C@]1(CNS(C)(=O)=O)CN(C(=O)c1ccncn1)C2	-26.59 & -11.52
CCn1cc2c(n1)CN(S(=O)(=O)Cc1ccccc1)CC2COC (stereo not shown)	-7.608
CN(Cc1cccnc1)C1CC2(CCN(C(=O)c3cscn3)CC2)C1	-29.41
Cc1ccc(C(=O)NCC(O)c2cnn(C)c2)c(Br)c1 (stereo not shown)	18.74
Cc1nc(CCNC(=O)CC2CCN(C(C)C)CC2)sc1Cl	-71.54
O=C(O)C(F)(F)F.O=C(O)C(F)(F)F.[H][C@@]12C[C@H](C(=O)NCC3CC3)N(C)[C@]1([H])CN(Cc1c(C)noc1C)C2	-6.855 & -4.466
CN(C)C(=O)c1cnn2c1OCCC2	5.036
c1cc(CCN2CCCC2CN2CCCCC2)ccn1 (stereo not shown)	10.96 & 2.685
COc1cccc(N2CCN(C(=O)[C@H](O)C3CCCCC3)CC2=O)c1	5.691
O=C(Cc1ccccn1)N1CCc2ncnc(N3CCCC3)c2CC1.O=C(O)C(F)(F)F	-21.89
Cc1nc2ccccc2c(=O)n1CCC(=O)N1CCCCCC1	-16.98
O=c1[nH]c(-c2ccccn2)nc2c1CCN(S(=O)(=O)N1CCCC1)C2	-26.55
CC(C)NC(=O)[C@@H]1CN(C(=O)C2CC2)C[C@]12Cc1ccccc1C(=O)N2	3.94 & -0.9918
Cc1cccc(CN2CC3(CCN(Cc4ccco4)CC3)OCC2=O)n1.O=C(O)C(F)(F)F.O=C(O)C(F)(F)F	-8.786
CC(C)Cc1ncc2c(n1)CN(C(=O)c1ccc(CN3CCCC3)o1)C2	7.588 & -13.81
COCc1ccc(CN[C@H]2C[C@@H](Cc3cc(CCO)on3)C2(C)C)o1	-14.03
[H][C@@]12OCCN(C(=O)COC)[C@@]1([H])CC[C@H]2OC	-1.612
CCc1nc(CCn2ccc3nc(OC)c(C#N)cc3c2=O)no1	21.11
Cc1[nH]ncc1C(=O)N1CCCC1c1noc(C2CC2)n1 (stereo not shown)	-23.34
Cc1nc(C2CCCN2C(=O)c2cnns2)no1 (stereo not shown)	-15.58
CCN(CC)CC1CCN(Cc2ncc(C(C)(C)C)o2)CC1	-14.43
CC(=O)N1CCCC(c2ccc(N3CCN(C)CC3)cn2)C1 (stereo not shown)	-13.14
Cc1cc(C2CCCN2Cc2cc(=O)n(C)c(=O)n2C)no1 (stereo not shown)	-15.23
O=C(Cc1ccc(F)cc1)N1CCCCC1c1ccn2ccnc2n1 (stereo not shown)	-10.82
COCCC(Cc1cccc(Br)c1)C(N)=O (stereo not shown)	-6.34
Cc1c(COC(C)C)cccc1NC(=O)N1CCCC(CO)C1 (stereo not shown)	7.502
CCCn1cc(NC(=O)c2cccc3cccnc23)ccc1=O	-8.368
COc1ccc(-n2cccn2)c(CN2CCC3(CCNCC3)C2)c1	17.86
[H][C@@]12CCN(S(=O)(=O)N(C)C)C[C@@]1([H])O[C@H](c1ccnc(C)n1)C2	10.44
Cc1cc(C(=O)NC2(c3cccc(F)c3)CCOCC2)no1	-13.26
COc1cccc2[nH]cc(CCNC(=O)N3CCCC3CO)c12 (stereo not shown)	9.4
CCOCC1CN(C(=O)Cc2ccccn2)Cc2cnn(C)c21.O=C(O)C(F)(F)F.O=C(O)C(F)(F)F (stereo not shown)	-10.59
COc1cccc(OC)c1-c1ccnc2cc(CC(=O)N(C)C)nn12	-11.81
O=C(C(CNCc1cccnc1)c1ccccc1)N1CCOCC1 (stereo not shown)	-5.221
Cc1c(-c2cc(-c3cnn(C)c3C)n(CC(=O)NC3CC3)n2)cnn1C	-18.35

The last 9 entries again:

| SMILES | effect |
|---|---|
| `CCCn1cc(NC(=O)c2cccc3cccnc23)ccc1=O` | -8.368 |
| `COc1ccc(-n2cccn2)c(CN2CCC3(CCNCC3)C2)c1` | 17.86 |
| `[H][C@@]12CCN(S(=O)(=O)N(C)C)C[C@@]1([H])O[C@H](c1ccnc(C)n1)C2` | 10.44 |
| `Cc1cc(C(=O)NC2(c3cccc(F)c3)CCOCC2)no1` | -13.26 |
| `COc1cccc2[nH]cc(CCNC(=O)N3CCCC3CO)c12` (stereo not shown) | 9.4 |
| `CCOCC1CN(C(=O)Cc2ccccn2)Cc2cnn(C)c21.O=C(O)C(F)(F)F.O=C(O)C(F)(F)F` (stereo not shown) | -10.59 |
| `COc1cccc(OC)c1-c1ccnc2cc(CC(=O)N(C)C)nn12` | -11.81 |
| `O=C(C(CNCc1cccnc1)c1ccccc1)N1CCOCC1` (stereo not shown) | -5.221 |
| `Cc1c(-c2cc(-c3cnn(C)c3C)n(CC(=O)NC3CC3)n2)cnn1C` | -18.35 |

From ChEMBL document CHEMBL3988442, “University of Dundee, Small-Polar-MMV Screening Library” (2021).